{"source": "paper PMC8092309", "binders": {"B1": {"name": "EhQTRTD1 (Entamoeba histolytica queuine tRNA-ribosyltransferase domain-containing 1, subunit of EhTGT), untagged (protein, UniProt C4M2L1 1-380)", "chain": "MSTSTPQFQIISTTKVGSIPFVTIDNYEKYLKEVNTFLFCYRDLYEAQEFILKYGKGYKKYFMMPEQSHHILSMSLTEKIDDSCNKLTKAEFNITTRGGYRPLTIQQVINFSNQSGFDKIEGFCYSPLEKRKTSKKMKQQRQIVIKKLKEMIEEKTKKGLTIEIIASIGLTGLDDDIQYVKDIIQTGIHEIVFDCEYIEDKDKILDFIQNIKDLCNNIKMYVKLYSFNLSQIIQAALMNVSIWTNSINEFTLHGQAFVFPLSINQNNNITSIDLYNTCYKDVVNDVCVNGCECFSCKSNQSRAYIHHLLLCHELTGTTLLSLHNFHYIHKLEQLINSLLLNDRSKLQQLADFYNSLIPPPEFQKVKLYADHRTKENEDDD"}}, "target": "polyhistidine-tagged mEhQTRT1 (EhQTRT1 with the point mutation D267 to A267) (Entamoeba histolytica)", "test": "SEC; Ni-NTA-purified complex dialysed (25 mM HEPES pH 7.4, 300 mM NaCl, 2 mM DTT), then Superdex 200 increase 10/300 GL in 25 mM HEPES pH 7.3, 100 mM NaCl, 50 uM ZnSO4, 5% glycerol, 2 mM DTT; peak fractions on SDS-PAGE with silver staining, bands identified by mass spectrometry; both purified", "note": "Results are given in words; binding and its absence hold for the method and conditions named. A result given as binding can be weak or reduced; the word gives no strength. Sequences can lack the tags named with a protein.", "data": [{"binder": "B1", "values": [{"measurement": "binding", "value": "binds"}]}]}
